In patent US20160369115A1, “POLARIZING PLATE COMPOSITION, POLARIZING PLATE PROTECTIVE FILM, POLARIZER, POLARIZING PLATE, LIQUID CRYSTAL DISPLAY DEVICE, AND COMPOUND USED IN THE LIQUID CRYSTAL DISPLAY DEVICE” (FUJIFILM Corporation, priority 2014, published 2016):
Some compounds share one wording; it may come from a single statement. Some compounds share one range, which may span the group rather than tell each member.

What was measured:
[1] = Bleed-out properties in polarizer (haze evaluation); conditions: haze of polarizing plate; additive in polarizer, added amount 1.0 per 100 parts by mass of polyvinyl alcohol resin
[2] = Evaluation of durability of polarizing plate, additive in polarizer (Example 2); conditions: added amount 1.0 per 100 parts by mass of polyvinyl alcohol resin, 410 nm
[3] = Evaluation of durability of polarizing plate, additive in adhesive layer (Example 3); conditions: added amount 10.0 per 100 parts by mass of the polyvinyl alcohol resin, film thickness 5 μm; for Durability of polarizer: amount of change of orthogonal transmittance (%) 60° C., 95%, 500 hours / Durability of polarizer: amount of change of orthogonal transmittance (%) 60° C., 95%, 1,000 hours / Durability of polarizer: amount of change of orthogonal transmittance (%) 80° C., Dry 500 hours / Durability of polarizer: amount of change of orthogonal transmittance (%) 80° C., Dry, 1,000 hours: 410 nm
[4] = Durability evaluation of polarizing plate, additive in polarizing plate protective film (Example 1); conditions: additive in protective film: Cellulose acylate, 25 μm, added amount 4.0 per 100 parts by mass of film resin; 410 nm
[5] = Evaluation of light-fast adhesiveness of polarizing plate protective film with hardcoat layer; conditions: additive in protective film: Cellulose acylate, 25 μm, added amount 4.0 per 100 parts by mass of film resin; light 96 hours, 60° C., 50% RH

CCOC(=O)Oc1c(Cc2ccccc2S(=O)(=O)[O-])c(=O)n(-c2ccccc2)c(=O)n1-c1ccccc1.[Na+] [Example compound D]
Bleed out [1]: A (The haze was less than 0.3%.)
Durability of polarizer: amount of change of degree of polarization (%) 60° C., 95%, 500 hours [2]: A+ (The amount of change of the degree of polarization before and after the elapse of time was less than 0.05%.)
Durability of polarizer: amount of change of degree of polarization (%) 60° C., 95%, 1,000 hours [2]: A+ (The amount of change of the degree of polarization before and after the elapse of time was less than 1.0%.)
Durability of polarizer: amount of change of degree of polarization (%) 80° C., Dry, 500 hours [2]: A+ (The amount of change of the degree of polarization before and after the elapse of time was less than 0.05%.)
Durability of polarizer: amount of change of degree of polarization (%) 80° C., Dry, 1,000 hours [2]: A+ (The amount of change of the degree of polarization before and after the elapse of time was less than 0.1%.)
Durability of polarizer: amount of change of orthogonal transmittance (%) 60° C., 95%, 500 hours [2]: A+ (The amount of change of the orthogonal transmittance before and after the elapse of time was less than 0.1%.)
Durability of polarizer: amount of change of orthogonal transmittance (%) 60° C., 95%, 1,000 hours [2]: A+ (The amount of change of the orthogonal transmittance before and after the elapse of time was less than 0.5%.)
Durability of polarizer: amount of change of orthogonal transmittance (%) 80° C., Dry 500 hours [2]: A+ (The amount of change of the orthogonal transmittance before and after the elapse of time was less than 0.05%.)
Durability of polarizer: amount of change of orthogonal transmittance (%) 80° C., Dry, 1,000 hours [2]: A+ (The amount of change of the orthogonal transmittance before and after the elapse of time was less than 0.1%.)
Durability of polarizer: amount of change of degree of polarization (%) 60° C., 95%, 500 hours [3]: A+ (The amount of change of the degree of polarization before and after the elapse of time was less than 0.05%.)
Durability of polarizer: amount of change of degree of polarization (%) 60° C., 95%, 1,000 hours [3]: A+ (The amount of change of the degree of polarization before and after the elapse of time was less than 1.0%.)
Durability of polarizer: amount of change of degree of polarization (%) 80° C., Dry, 500 hours [3]: A+ (The amount of change of the degree of polarization before and after the elapse of time was less than 0.05%.)
Durability of polarizer: amount of change of degree of polarization (%) 80° C., Dry, 1,000 hours [3]: A+ (The amount of change of the degree of polarization before and after the elapse of time was less than 0.1%.)
Durability of polarizer: amount of change of orthogonal transmittance (%) 60° C., 95%, 500 hours [3]: A+ (The amount of change of the orthogonal transmittance before and after the elapse of time was less than 0.1%.)
Durability of polarizer: amount of change of orthogonal transmittance (%) 60° C., 95%, 1,000 hours [3]: A+ (The amount of change of the orthogonal transmittance before and after the elapse of time was less than 0.5%.)
Durability of polarizer: amount of change of orthogonal transmittance (%) 80° C., Dry 500 hours [3]: A+ (The amount of change of the orthogonal transmittance before and after the elapse of time was less than 0.05%.)
Durability of polarizer: amount of change of orthogonal transmittance (%) 80° C., Dry, 1,000 hours [3]: A+ (The amount of change of the orthogonal transmittance before and after the elapse of time was less than 0.1%.)

COC(=O)Cc1c(Cc2ccc(S(=O)(=O)[O-])cc2S(=O)(=O)[O-])c(=O)[nH]c2ccccc12.[Na+].[Na+] [Example compound AJ]
Bleed out [1]: A (The haze was less than 0.3%.)
Durability of polarizer: amount of change of degree of polarization (%) 60° C., 95%, 500 hours [2]: A+ (The amount of change of the degree of polarization before and after the elapse of time was less than 0.05%.)
Durability of polarizer: amount of change of degree of polarization (%) 60° C., 95%, 1,000 hours [2]: A+ (The amount of change of the degree of polarization before and after the elapse of time was less than 1.0%.)
Durability of polarizer: amount of change of degree of polarization (%) 80° C., Dry, 500 hours [2]: A+ (The amount of change of the degree of polarization before and after the elapse of time was less than 0.05%.)
Durability of polarizer: amount of change of degree of polarization (%) 80° C., Dry, 1,000 hours [2]: A+ (The amount of change of the degree of polarization before and after the elapse of time was less than 0.1%.)
Durability of polarizer: amount of change of orthogonal transmittance (%) 60° C., 95%, 500 hours [2]: A+ (The amount of change of the orthogonal transmittance before and after the elapse of time was less than 0.1%.)
Durability of polarizer: amount of change of orthogonal transmittance (%) 60° C., 95%, 1,000 hours [2]: A+ (The amount of change of the orthogonal transmittance before and after the elapse of time was less than 0.5%.)
Durability of polarizer: amount of change of orthogonal transmittance (%) 80° C., Dry 500 hours [2]: A+ (The amount of change of the orthogonal transmittance before and after the elapse of time was less than 0.05%.)
Durability of polarizer: amount of change of orthogonal transmittance (%) 80° C., Dry, 1,000 hours [2]: A+ (The amount of change of the orthogonal transmittance before and after the elapse of time was less than 0.1%.)
Durability of polarizer: amount of change of degree of polarization (%) 60° C., 95%, 500 hours [3]: A+ (The amount of change of the degree of polarization before and after the elapse of time was less than 0.05%.)
Durability of polarizer: amount of change of degree of polarization (%) 60° C., 95%, 1,000 hours [3]: A+ (The amount of change of the degree of polarization before and after the elapse of time was less than 1.0%.)
Durability of polarizer: amount of change of degree of polarization (%) 80° C., Dry, 500 hours [3]: A+ (The amount of change of the degree of polarization before and after the elapse of time was less than 0.05%.)
Durability of polarizer: amount of change of degree of polarization (%) 80° C., Dry, 1,000 hours [3]: A+ (The amount of change of the degree of polarization before and after the elapse of time was less than 0.1%.)
Durability of polarizer: amount of change of orthogonal transmittance (%) 60° C., 95%, 500 hours [3]: A+ (The amount of change of the orthogonal transmittance before and after the elapse of time was less than 0.1%.)
Durability of polarizer: amount of change of orthogonal transmittance (%) 60° C., 95%, 1,000 hours [3]: A+ (The amount of change of the orthogonal transmittance before and after the elapse of time was less than 0.5%.)
Durability of polarizer: amount of change of orthogonal transmittance (%) 80° C., Dry 500 hours [3]: A+ (The amount of change of the orthogonal transmittance before and after the elapse of time was less than 0.05%.)
Durability of polarizer: amount of change of orthogonal transmittance (%) 80° C., Dry, 1,000 hours [3]: A+ (The amount of change of the orthogonal transmittance before and after the elapse of time was less than 0.1%.)

O=C(Oc1c(Cc2ccccc2)c(=O)n(-c2ccccc2)c(=O)n1-c1ccccc1)OC1c2ccccc2-c2ccccc21 [Example compound G]
Durability of polarizer: amount of change of orthogonal transmittance (%) 60° C., 95%, 500 hours [4]: A+ (The amount of change of the orthogonal transmittance before and after the elapse of time was less than 0.4%.)
Durability of polarizer: amount of change of orthogonal transmittance (%) 60° C., 95%, 1,000 hours [4]: A+ (The amount of change of the orthogonal transmittance before and after the elapse of time was less than 1.0%.)
Durability of polarizer: amount of change of orthogonal transmittance (%) 80° C., Dry 500 hours [4]: A+ (The amount of change of the orthogonal transmittance before and after the elapse of time was less than 0.1%.)
Durability of polarizer: amount of change of orthogonal transmittance (%) 80° C., Dry, 1,000 hours [4]: A+ (The amount of change of the orthogonal transmittance before and after the elapse of time was less than 0.5%.)
Light-fast adhesiveness [5]: A (The number of cells peeled off among 100 cells was equal to or less than 10.)

CCO[Si](CCCNC(=O)OCCn1c(=O)[nH]c(OC(=O)OC)c(Cc2ccccc2)c1=O)(OCC)OCC [Example compound AAO]
Durability of polarizer: amount of change of orthogonal transmittance (%) 60° C., 95%, 500 hours [4]: A+ (The amount of change of the orthogonal transmittance before and after the elapse of time was less than 0.4%.)
Durability of polarizer: amount of change of orthogonal transmittance (%) 60° C., 95%, 1,000 hours [4]: A+ (The amount of change of the orthogonal transmittance before and after the elapse of time was less than 1.0%.)
Durability of polarizer: amount of change of orthogonal transmittance (%) 80° C., Dry 500 hours [4]: A+ (The amount of change of the orthogonal transmittance before and after the elapse of time was less than 0.1%.)
Durability of polarizer: amount of change of orthogonal transmittance (%) 80° C., Dry, 1,000 hours [4]: A+ (The amount of change of the orthogonal transmittance before and after the elapse of time was less than 0.5%.)
Light-fast adhesiveness [5]: A (The number of cells peeled off among 100 cells was equal to or less than 10.)

CS(=O)(=O)Oc1c(-c2ccccc2)c(=O)n(-c2ccccc2)c(=O)n1-c1ccccc1 [Example compound M]
Durability of polarizer: amount of change of orthogonal transmittance (%) 60° C., 95%, 500 hours [4]: A (The amount of change of the orthogonal transmittance before and after the elapse of time was equal to or greater than 0.4% and less than 0.6%.)
Durability of polarizer: amount of change of orthogonal transmittance (%) 60° C., 95%, 1,000 hours [4]: A+ (The amount of change of the orthogonal transmittance before and after the elapse of time was less than 1.0%.)
Durability of polarizer: amount of change of orthogonal transmittance (%) 80° C., Dry 500 hours [4]: A (The amount of change of the orthogonal transmittance before and after the elapse of time was equal to or greater than 0.1% and less than 0.3%.)
Durability of polarizer: amount of change of orthogonal transmittance (%) 80° C., Dry, 1,000 hours [4]: A+ (The amount of change of the orthogonal transmittance before and after the elapse of time was less than 0.5%.)
Light-fast adhesiveness [5]: B (The number of cells peeled off among 100 cells was 11 to 20.)

COC(=O)Oc1[nH]c(=O)[nH]c(=O)c1C=O [Example compound AAT]
Durability of polarizer: amount of change of orthogonal transmittance (%) 60° C., 95%, 500 hours [4]: A+ (The amount of change of the orthogonal transmittance before and after the elapse of time was less than 0.4%.)
Durability of polarizer: amount of change of orthogonal transmittance (%) 60° C., 95%, 1,000 hours [4]: A+ (The amount of change of the orthogonal transmittance before and after the elapse of time was less than 1.0%.)
Durability of polarizer: amount of change of orthogonal transmittance (%) 80° C., Dry 500 hours [4]: A+ (The amount of change of the orthogonal transmittance before and after the elapse of time was less than 0.1%.)
Durability of polarizer: amount of change of orthogonal transmittance (%) 80° C., Dry, 1,000 hours [4]: A+ (The amount of change of the orthogonal transmittance before and after the elapse of time was less than 0.5%.)
Light-fast adhesiveness [5]: A (The number of cells peeled off among 100 cells was equal to or less than 10.)

COC(=O)Oc1c(Cc2ccc(B3OC(C)(C)C(C)(C)O3)cc2)c(=O)n(-c2ccccc2)c(=O)n1Cc1ccccc1 [Example compound AAM]
Durability of polarizer: amount of change of orthogonal transmittance (%) 60° C., 95%, 500 hours [4]: A+ (The amount of change of the orthogonal transmittance before and after the elapse of time was less than 0.4%.)
Durability of polarizer: amount of change of orthogonal transmittance (%) 60° C., 95%, 1,000 hours [4]: A+ (The amount of change of the orthogonal transmittance before and after the elapse of time was less than 1.0%.)
Durability of polarizer: amount of change of orthogonal transmittance (%) 80° C., Dry 500 hours [4]: A+ (The amount of change of the orthogonal transmittance before and after the elapse of time was less than 0.1%.)
Durability of polarizer: amount of change of orthogonal transmittance (%) 80° C., Dry, 1,000 hours [4]: A+ (The amount of change of the orthogonal transmittance before and after the elapse of time was less than 0.5%.)
Light-fast adhesiveness [5]: A (The number of cells peeled off among 100 cells was equal to or less than 10.)
